Reference: the supplement of paper PMC4604168 (melanoma cell lines)
Some of the results follow. Single values are uncertain, as repeats are few or missing.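 Imaging used 1,536-well plates; nuclei positive for cleaved PARP by antibody were divided by total DNA-stained nuclei to yield the apoptosis fraction. Doses for screening kept most cells viable, and cell lines differ markedly in resting and induced cleaved-PARP levels.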

Legend:
Assay in all cases: cleaved PARP positive nuclei fraction relative to DMSO control; melanoma cells; higher = more apoptosis
Settings in all cases: library dose: low library concentration; 72 h
[1] = test system: MZ2-MEL
[2] = test system: MeWo
[3] = test system: RPMI7951
[4] = test system: RVH-421
[5] = test system: SkMel28
[6] = test system: SkMel2
[7] = test system: SkMel30
[8] = test system: UACC62
[9] = test system: WM115
[10] = test system: WM1716
[11] = test system: WM1745
[12] = test system: WM3526
[13] = test system: WM3619
[14] = test system: WM451Lu

SMILES	cleaved PARP positive nuclei fraction [1] [%]	cleaved PARP positive nuclei fraction [2] [%]	cleaved PARP positive nuclei fraction [3] [%]	cleaved PARP positive nuclei fraction [4] [%]	cleaved PARP positive nuclei fraction [5] [%]	cleaved PARP positive nuclei fraction [6] [%]	cleaved PARP positive nuclei fraction [7] [%]	cleaved PARP positive nuclei fraction [8] [%]	cleaved PARP positive nuclei fraction [9] [%]	cleaved PARP positive nuclei fraction [10] [%]	cleaved PARP positive nuclei fraction [11] [%]	cleaved PARP positive nuclei fraction [12] [%]	cleaved PARP positive nuclei fraction [13] [%]	cleaved PARP positive nuclei fraction [14] [%]
Cn1cnc2c(F)c(Nc3ccc(Br)cc3Cl)c(C(=O)NOCCO)cc21 [selumetinib] + CN(c1ncccc1CNc1nc(Nc2ccc3c(c2)CC(=O)N3)ncc1C(F)(F)F)S(C)(=O)=O [PF562271] (first compound 0.015 µM, partner dose 0.08 µM)	441	191	149	157	83.7	99.5	167	435	253	147	109	55.9	101	52.8
CCCCCCCCc1ccc(CCC(N)(CO)CO)cc1 [fingolimod] + CCCS(=O)(=O)Nc1ccc(F)c(C(=O)c2c[nH]c3ncc(Cl)cc23)c1F [PLX4720] (first compound 2 µM, partner dose 0.08 µM)	207	53.4	155	152	104	71.2	115	259	64.7	127	107	95.4	95.2	71.8
CC(=O)O[C@@]12CO[C@@H]1C[C@H](O)[C@@]1(C)C(=O)[C@H](O)C3=C(C)[C@@H](OC(=O)[C@H](O)[C@@H](NC(=O)OC(C)(C)C)c4ccccc4)C[C@@](O)([C@@H](OC(=O)c4ccccc4)[C@H]21)C3(C)C [Docetaxel] + Clc1ccc(Nc2nnc(Cc3ccncc3)c3ccccc23)cc1 [vatalanib] (first compound 0.0001 µM, partner dose 2 µM)	587	475	261	135	550	601	509	749	268	136	160	46.2	129	57.5
CCN(CC)CCNC(=O)c1c(C)[nH]c(/C=C2\C(=O)Nc3ccc(F)cc32)c1C [sunitinib] + NC1(c2ccc(-c3nc4ccn5c(=O)[nH]nc5c4cc3-c3ccccc3)cc2)CCC1 [MK2206] (first compound 0.4 µM, partner dose 0.4 µM)	220	75	211	28.4	89.6	83	52	273	168	111	136	190	147	82.6
CN(c1ncccc1CNc1nc(Nc2ccc3c(c2)CC(=O)N3)ncc1C(F)(F)F)S(C)(=O)=O + CS(=O)(=O)CCNCc1ccc(-c2ccc3ncnc(Nc4ccc(OCc5cccc(F)c5)c(Cl)c4)c3c2)o1 [lapatinib] (first compound 0.08 µM, partner dose 0.8 µM)	101	979	137	292	94.1	96.4	24	391	237	1190	275	187	83.2	122
CCCCCCCCc1ccc(CCC(N)(CO)CO)cc1 [fingolimod] + O=C(O)c1ccc2c(c1)nc(Nc1cccc(Cl)c1)c1ccncc12 [CX4945] (first compound 2 µM, partner dose 0.4 µM)	71	49.6	67.9	105	64.7	54	92.2	248	135	52.9	114	86.4	115	50.8
C[C@@H](N)c1ccc(C(=O)Nc2ccnc3[nH]ccc23)cc1 + COc1ccc(Cl)c(Nc2nc3ccccc3nc2NS(=O)(=O)c2cccc(NC(=O)C(C)(C)N)c2)c1 [XL147] (first compound 0.4 µM, partner dose 0.8 µM)	272	325	130	328	188	223	75.3	176	95.9	151	155	62.3	114	105
CN(c1ncccc1CNc1nc(Nc2ccc3c(c2)CC(=O)N3)ncc1C(F)(F)F)S(C)(=O)=O + Nc1ncn([C@H]2C[C@H](O)[C@@H](CO)O2)c(=O)n1 [decitabine] (first compound 0.08 µM, partner dose 0.1 µM)	66.5	77.4	55.6	158	78.2	175	69	60.3	191	131	128	144	192	76.5
C[C@@H](N)c1ccc(C(=O)Nc2ccnc3[nH]ccc23)cc1 + CCCCCCCCc1ccc(CCC(N)(CO)CO)cc1 [fingolimod] (first compound 0.4 µM, partner dose 2 µM)	253	206	141	116	96.5	90.9	43.4	91.2	96.4	96.5	129	52.6	91.7	44.1
NC(=O)c1ccc(N(C(N)=O)c2c(F)cccc2F)nc1-c1ccc(F)cc1F + Nc1ncn([C@H]2C[C@H](O)[C@@H](CO)O2)c(=O)n1 [decitabine] (first compound 0.4 µM, partner dose 0.1 µM)	167	116	47.5	280	90.1	86.9	44	120	36.7	77.4	110	81.4	116	84.9
C[C@@H](N)c1ccc(C(=O)Nc2ccnc3[nH]ccc23)cc1 + CC(=O)O[C@@]12CO[C@@H]1C[C@H](O)[C@@]1(C)C(=O)[C@H](O)C3=C(C)[C@@H](OC(=O)[C@H](O)[C@@H](NC(=O)OC(C)(C)C)c4ccccc4)C[C@@](O)([C@@H](OC(=O)c4ccccc4)[C@H]21)C3(C)C [Docetaxel] (first compound 0.4 µM, partner dose 0.0001 µM)	1410	409	131	398	453	916	242	472	192	207	167	79	139	141
CS(=O)(=O)c1ccc(C(=O)Nc2ccc(Cl)c(-c3ccccn3)c2)c(Cl)c1 [vismodegib] + Cc1cc(Nc2cc(N3CCN(C)CC3)nc(/C=C/c3ccccc3)n2)n[nH]1 [ENMD2076] (first compound 1 µM, partner dose 0.04 µM)	94.7	47.1	294	333	35.7	66.3	54	256	114	34.1	153	25.5	102	48.1
COc1ccc(C2=N[C@@H](c3ccc(Cl)cc3)[C@@H](c3ccc(Cl)cc3)N2C(=O)N2CCNC(=O)C2)c(OC(C)C)c1 [Nutlin-3] + CS(=O)(=O)c1ccc(C(=O)Nc2ccc(Cl)c(-c3ccccn3)c2)c(Cl)c1 [vismodegib] (first compound 0.1 µM, partner dose 1 µM)	91.6	137	102	112	77.7	66.8	21	92.6	82.7	35.9	83.7	168	103	46
Cn1sc(=O)n(Cc2ccccc2)c1=O + COCC[n+]1c2c(n(Cc3cnccn3)c1C)C(=O)c1ccccc1C2=O [YM155] (first compound 0.4 µM, partner dose 0.0004 µM)	108	96.7	117	65.8	106	75.1	47.7	122	92.3	14.5	101	40.3	90.7	53.9
Cn1cnc2c(F)c(Nc3ccc(Br)cc3Cl)c(C(=O)NOCCO)cc21 [selumetinib] + C[C@]1(O)C[C@@H](c2nc(-c3ccc4ccc(-c5ccccc5)nc4c3)c3c(N)nccn32)C1 [OSI906] (first compound 0.015 µM, partner dose 0.4 µM)	324	70.9	102	92	90.4	374	282	154	130	32.7	122	208	111	50.8
CN(c1ncccc1CNc1nc(Nc2ccc3c(c2)CC(=O)N3)ncc1C(F)(F)F)S(C)(=O)=O + Nc1ccn([C@@H]2O[C@H](CO)[C@@H](O)C2(F)F)c(=O)n1 [gemcitabine] (first compound 0.08 µM, partner dose 0.0004 µM)	119	1560	75.7	60.7	106	222	29.2	148	245	1930	135	104	90.9	360
CC1(C)CCC(c2ccc(Cl)cc2)=C(CN2CCN(c3ccc(C(=O)NS(=O)(=O)c4ccc(N[C@H](CCN5CCOCC5)CSc5ccccc5)c(S(=O)(=O)C(F)(F)F)c4)cc3)CC2)C1 + Cn1c(Nc2ccc(C(F)(F)F)cc2)nc2cc(Oc3ccnc(-c4ncc(C(F)(F)F)[nH]4)c3)ccc21 [CHIR265] (first compound 0.4 µM, partner dose 0.08 µM)	224	794	515	365	113	407	158	236	5820	509	2010	296	227	123
CCCCCCCCc1ccc(CCC(N)(CO)CO)cc1 [fingolimod] + C[C@]1(c2nc3c(C(N)=O)cccc3[nH]2)CCCN1 [Veliparib] (first compound 2 µM, partner dose 1.4 µM)	56.7	73.3	118	127	49.4	130	176	218	174	50	124	182	107	24.8
Cn1cnc2c(F)c(Nc3ccc(Br)cc3Cl)c(C(=O)NOCCO)cc21 [selumetinib] + Cn1sc(=O)n(Cc2ccccc2)c1=O [TDZD-8] (first compound 0.015 µM, partner dose 0.4 µM)	187	62.1	151	53.6	99.2	136	87.4	144	100	13.7	94	36.1	122	54.1

A different layout for part of the listing above.
SMILES | cleaved PARP positive nuclei fraction [1] [%] | cleaved PARP positive nuclei fraction [2] [%] | cleaved PARP positive nuclei fraction [3] [%] | cleaved PARP positive nuclei fraction [4] [%] | cleaved PARP positive nuclei fraction [5] [%] | cleaved PARP positive nuclei fraction [6] [%] | cleaved PARP positive nuclei fraction [7] [%] | cleaved PARP positive nuclei fraction [8] [%] | cleaved PARP positive nuclei fraction [9] [%] | cleaved PARP positive nuclei fraction [10] [%] | cleaved PARP positive nuclei fraction [11] [%] | cleaved PARP positive nuclei fraction [12] [%] | cleaved PARP positive nuclei fraction [13] [%] | cleaved PARP positive nuclei fraction [14] [%]
CCCCCCCCc1ccc(CCC(N)(CO)CO)cc1 [fingolimod] + C[C@]1(c2nc3c(C(N)=O)cccc3[nH]2)CCCN1 [Veliparib] (first compound 2 µM, partner dose 1.4 µM) | 56.7 | 73.3 | 118 | 127 | 49.4 | 130 | 176 | 218 | 174 | 50 | 124 | 182 | 107 | 24.8
Cn1cnc2c(F)c(Nc3ccc(Br)cc3Cl)c(C(=O)NOCCO)cc21 [selumetinib] + Cn1sc(=O)n(Cc2ccccc2)c1=O [TDZD-8] (first compound 0.015 µM, partner dose 0.4 µM) | 187 | 62.1 | 151 | 53.6 | 99.2 | 136 | 87.4 | 144 | 100 | 13.7 | 94 | 36.1 | 122 | 54.1
